This test addresses hepatoma-derived growth factor (HDGF) (human (endogenous in SKOV3 and OVCAR3)) (UniProt P51858). Kind of test: co-IP; Pierce Co-IP kit; 10 ug specific antibody or IgG added to 5 mg protein overnight at 4 C; SKOV3 and OVCAR3 cells; detected by Western blot. For orientation: Immunoblotting shows a protein as a band on a membrane.

Amino acid sequences for entries named in this document (tags omitted).
UniProt P51858: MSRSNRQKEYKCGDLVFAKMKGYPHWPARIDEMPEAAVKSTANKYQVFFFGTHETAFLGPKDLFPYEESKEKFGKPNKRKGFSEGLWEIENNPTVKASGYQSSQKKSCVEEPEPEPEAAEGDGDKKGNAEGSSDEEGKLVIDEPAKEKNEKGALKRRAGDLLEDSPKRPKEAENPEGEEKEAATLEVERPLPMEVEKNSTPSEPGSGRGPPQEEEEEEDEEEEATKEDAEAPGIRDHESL
UniProt P05412: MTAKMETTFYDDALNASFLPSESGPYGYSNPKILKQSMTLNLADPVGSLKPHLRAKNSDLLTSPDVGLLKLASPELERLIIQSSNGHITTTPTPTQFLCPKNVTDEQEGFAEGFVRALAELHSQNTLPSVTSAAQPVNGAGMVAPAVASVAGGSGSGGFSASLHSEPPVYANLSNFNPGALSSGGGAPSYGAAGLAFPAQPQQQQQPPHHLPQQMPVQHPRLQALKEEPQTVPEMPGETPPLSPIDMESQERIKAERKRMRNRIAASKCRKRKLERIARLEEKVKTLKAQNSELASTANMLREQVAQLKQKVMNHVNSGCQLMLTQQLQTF

Drawing on PMC8962469, this text covers binding for one substance.

Results are given in words; binding and its absence hold for the method and conditions named. Binding seen in cells or lysates may run through a third protein. Some binding calls cover weakened binding; strength is not graded here.

Regarding “jun proto-oncogene (C-JUN) (from UniProt P05412 1-331)”, the binding entry was “binds”.
